Reference: article PMC6299225

Target: TbPRMT1 prozyme subunit, C-terminally Myc-His-TAP-tagged (PRO-MHT) (T. brucei)
Test: affinity purification with mass spectrometry; PRO-MHT expressed in procyclic-form T. brucei and purified with associated proteins; complexes eluted by TEV protease cleavage; cells without induced PRO-MHT as negative control; proteins with <2.5x peptides over the negative control removed

B1: TbPRMT1 enzymatic subunit (ENZ) (protein, UniProt Q4GYA9 1-345)
chain: MTVDANAASSTTTTTDYYFDSYSHYGIHMEMLKDCHRTTSYRDAMWRNAYLFKDKVVLDVGCGTGILSMFAAKAGARKVIGVDCSTVAVQAREIVRDNGFEDVITIIQGKVEEIQLDEKVDIIISEWMGYFLLYESMLNTVLYARDNLGTPDVKMFPDKANMHVCGITDEQYIQERFNIWDNVQGIDFSYFKRLSFIEPLVDTVERSQIVTNVAPLVSFDINTVKEADLSFTSEFALEAQASRGKRNGGNSIIYVHALSVHFDTPFTAGHEVVILDTTPYSPPTHWRQTVLYLFNPLRMRAGERATFRMKCSPNALNGRDLDISLHVDFEGALQISHYDQDFRLR
In the case of B1, the binding is reported as “binds”.

These are yes or no findings as the source states them, for the method shown. Binding seen in cells or lysates may run through a third protein. Here binding means that the protein was enriched with, or labelled near, the bait; the list need not be complete.
